Measurements: the supplement of paper PMC10849652
Some of the results follow.

Chains of the proteins cited; added tags and fusions are not shown. Lines headed by an entry give the natural chain unless they say otherwise; changes in a name come on top.
UniProt Q8NBU5: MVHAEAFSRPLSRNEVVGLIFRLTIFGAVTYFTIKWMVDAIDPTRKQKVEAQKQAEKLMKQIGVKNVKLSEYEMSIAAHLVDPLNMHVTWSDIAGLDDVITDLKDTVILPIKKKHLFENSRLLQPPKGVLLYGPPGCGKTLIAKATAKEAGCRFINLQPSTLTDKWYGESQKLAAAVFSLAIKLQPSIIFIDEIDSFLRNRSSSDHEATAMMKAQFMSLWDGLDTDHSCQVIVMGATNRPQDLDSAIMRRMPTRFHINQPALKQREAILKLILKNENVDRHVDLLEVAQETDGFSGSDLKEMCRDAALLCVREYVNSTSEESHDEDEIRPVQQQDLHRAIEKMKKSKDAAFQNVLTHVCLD
UniProt P30049: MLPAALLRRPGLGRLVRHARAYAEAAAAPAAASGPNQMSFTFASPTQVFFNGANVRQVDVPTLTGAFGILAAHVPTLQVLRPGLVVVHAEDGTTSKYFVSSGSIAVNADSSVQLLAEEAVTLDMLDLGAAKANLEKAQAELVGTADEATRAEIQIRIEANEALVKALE
UniProt O43861: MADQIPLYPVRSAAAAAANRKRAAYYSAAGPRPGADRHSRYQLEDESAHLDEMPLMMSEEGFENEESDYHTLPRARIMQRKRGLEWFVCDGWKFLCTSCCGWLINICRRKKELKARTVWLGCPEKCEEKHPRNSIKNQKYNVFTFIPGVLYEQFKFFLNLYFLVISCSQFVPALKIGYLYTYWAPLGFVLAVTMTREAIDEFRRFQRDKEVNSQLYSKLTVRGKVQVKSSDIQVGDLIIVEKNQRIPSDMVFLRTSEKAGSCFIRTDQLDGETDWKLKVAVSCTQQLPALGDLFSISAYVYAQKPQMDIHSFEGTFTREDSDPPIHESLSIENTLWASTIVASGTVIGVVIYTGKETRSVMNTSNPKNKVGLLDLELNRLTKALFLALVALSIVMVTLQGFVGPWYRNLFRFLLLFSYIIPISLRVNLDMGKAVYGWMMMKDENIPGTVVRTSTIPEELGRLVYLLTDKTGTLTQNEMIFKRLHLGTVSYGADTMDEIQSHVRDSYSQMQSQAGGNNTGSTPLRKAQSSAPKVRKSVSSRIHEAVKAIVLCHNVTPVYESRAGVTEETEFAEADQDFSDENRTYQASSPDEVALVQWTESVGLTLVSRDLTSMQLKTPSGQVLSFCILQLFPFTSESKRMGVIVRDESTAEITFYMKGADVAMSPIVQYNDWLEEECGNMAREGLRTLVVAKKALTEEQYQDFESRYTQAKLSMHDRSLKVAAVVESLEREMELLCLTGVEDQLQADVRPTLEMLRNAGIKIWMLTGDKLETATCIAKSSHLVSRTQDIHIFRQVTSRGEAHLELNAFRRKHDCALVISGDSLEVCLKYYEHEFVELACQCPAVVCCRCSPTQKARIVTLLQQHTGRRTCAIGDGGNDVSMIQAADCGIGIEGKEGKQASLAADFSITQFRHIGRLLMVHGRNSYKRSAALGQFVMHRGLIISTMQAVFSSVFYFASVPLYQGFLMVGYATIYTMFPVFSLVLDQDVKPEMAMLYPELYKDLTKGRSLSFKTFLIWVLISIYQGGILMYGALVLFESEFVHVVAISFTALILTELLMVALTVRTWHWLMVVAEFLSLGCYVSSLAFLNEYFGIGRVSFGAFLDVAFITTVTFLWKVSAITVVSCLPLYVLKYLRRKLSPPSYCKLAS
UniProt P18847: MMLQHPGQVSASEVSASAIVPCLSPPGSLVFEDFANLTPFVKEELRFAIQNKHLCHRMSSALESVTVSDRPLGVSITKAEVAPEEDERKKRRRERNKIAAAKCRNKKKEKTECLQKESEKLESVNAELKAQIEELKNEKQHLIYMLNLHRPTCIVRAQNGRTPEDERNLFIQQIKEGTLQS
UniProt Q16864, whole entry, looked up: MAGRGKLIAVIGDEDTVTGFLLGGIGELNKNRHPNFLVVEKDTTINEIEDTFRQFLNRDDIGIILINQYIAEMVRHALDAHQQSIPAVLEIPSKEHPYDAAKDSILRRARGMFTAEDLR
UniProt P56385: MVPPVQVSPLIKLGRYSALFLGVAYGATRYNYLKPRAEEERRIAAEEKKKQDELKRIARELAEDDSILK
UniProt P49407: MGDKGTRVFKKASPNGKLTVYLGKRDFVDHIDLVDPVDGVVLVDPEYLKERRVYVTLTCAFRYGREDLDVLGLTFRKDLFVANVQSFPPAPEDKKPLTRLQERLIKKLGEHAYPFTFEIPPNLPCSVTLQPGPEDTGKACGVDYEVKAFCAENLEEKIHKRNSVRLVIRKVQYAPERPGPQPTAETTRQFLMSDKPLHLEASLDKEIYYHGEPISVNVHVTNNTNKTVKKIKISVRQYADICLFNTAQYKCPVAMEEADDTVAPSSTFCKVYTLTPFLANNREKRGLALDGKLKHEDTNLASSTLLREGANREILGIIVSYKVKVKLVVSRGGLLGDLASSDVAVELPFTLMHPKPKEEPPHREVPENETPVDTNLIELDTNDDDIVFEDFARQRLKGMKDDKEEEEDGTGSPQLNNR
UniProt Q3SXY8: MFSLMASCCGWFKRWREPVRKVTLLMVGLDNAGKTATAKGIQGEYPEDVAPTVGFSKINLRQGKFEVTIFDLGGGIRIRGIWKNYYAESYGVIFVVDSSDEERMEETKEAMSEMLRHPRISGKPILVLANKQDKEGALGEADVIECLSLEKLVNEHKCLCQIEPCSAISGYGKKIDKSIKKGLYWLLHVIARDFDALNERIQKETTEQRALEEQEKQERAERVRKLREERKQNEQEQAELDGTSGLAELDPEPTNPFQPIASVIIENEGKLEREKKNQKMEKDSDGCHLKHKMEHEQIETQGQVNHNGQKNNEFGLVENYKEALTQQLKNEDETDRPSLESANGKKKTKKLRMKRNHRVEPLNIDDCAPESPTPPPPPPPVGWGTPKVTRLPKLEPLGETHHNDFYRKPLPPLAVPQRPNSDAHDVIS
UniProt Q9Y4P1: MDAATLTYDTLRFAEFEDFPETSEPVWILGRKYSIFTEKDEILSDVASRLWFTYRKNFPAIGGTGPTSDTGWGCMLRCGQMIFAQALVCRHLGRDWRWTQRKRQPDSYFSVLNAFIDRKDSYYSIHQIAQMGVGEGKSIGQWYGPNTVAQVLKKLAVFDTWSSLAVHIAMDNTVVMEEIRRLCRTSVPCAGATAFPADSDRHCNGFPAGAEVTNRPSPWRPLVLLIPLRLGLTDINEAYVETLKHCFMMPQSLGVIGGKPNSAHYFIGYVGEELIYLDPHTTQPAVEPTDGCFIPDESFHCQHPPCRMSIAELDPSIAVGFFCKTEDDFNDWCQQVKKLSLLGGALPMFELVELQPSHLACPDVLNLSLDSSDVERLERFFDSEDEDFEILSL
UniProt Q76L83: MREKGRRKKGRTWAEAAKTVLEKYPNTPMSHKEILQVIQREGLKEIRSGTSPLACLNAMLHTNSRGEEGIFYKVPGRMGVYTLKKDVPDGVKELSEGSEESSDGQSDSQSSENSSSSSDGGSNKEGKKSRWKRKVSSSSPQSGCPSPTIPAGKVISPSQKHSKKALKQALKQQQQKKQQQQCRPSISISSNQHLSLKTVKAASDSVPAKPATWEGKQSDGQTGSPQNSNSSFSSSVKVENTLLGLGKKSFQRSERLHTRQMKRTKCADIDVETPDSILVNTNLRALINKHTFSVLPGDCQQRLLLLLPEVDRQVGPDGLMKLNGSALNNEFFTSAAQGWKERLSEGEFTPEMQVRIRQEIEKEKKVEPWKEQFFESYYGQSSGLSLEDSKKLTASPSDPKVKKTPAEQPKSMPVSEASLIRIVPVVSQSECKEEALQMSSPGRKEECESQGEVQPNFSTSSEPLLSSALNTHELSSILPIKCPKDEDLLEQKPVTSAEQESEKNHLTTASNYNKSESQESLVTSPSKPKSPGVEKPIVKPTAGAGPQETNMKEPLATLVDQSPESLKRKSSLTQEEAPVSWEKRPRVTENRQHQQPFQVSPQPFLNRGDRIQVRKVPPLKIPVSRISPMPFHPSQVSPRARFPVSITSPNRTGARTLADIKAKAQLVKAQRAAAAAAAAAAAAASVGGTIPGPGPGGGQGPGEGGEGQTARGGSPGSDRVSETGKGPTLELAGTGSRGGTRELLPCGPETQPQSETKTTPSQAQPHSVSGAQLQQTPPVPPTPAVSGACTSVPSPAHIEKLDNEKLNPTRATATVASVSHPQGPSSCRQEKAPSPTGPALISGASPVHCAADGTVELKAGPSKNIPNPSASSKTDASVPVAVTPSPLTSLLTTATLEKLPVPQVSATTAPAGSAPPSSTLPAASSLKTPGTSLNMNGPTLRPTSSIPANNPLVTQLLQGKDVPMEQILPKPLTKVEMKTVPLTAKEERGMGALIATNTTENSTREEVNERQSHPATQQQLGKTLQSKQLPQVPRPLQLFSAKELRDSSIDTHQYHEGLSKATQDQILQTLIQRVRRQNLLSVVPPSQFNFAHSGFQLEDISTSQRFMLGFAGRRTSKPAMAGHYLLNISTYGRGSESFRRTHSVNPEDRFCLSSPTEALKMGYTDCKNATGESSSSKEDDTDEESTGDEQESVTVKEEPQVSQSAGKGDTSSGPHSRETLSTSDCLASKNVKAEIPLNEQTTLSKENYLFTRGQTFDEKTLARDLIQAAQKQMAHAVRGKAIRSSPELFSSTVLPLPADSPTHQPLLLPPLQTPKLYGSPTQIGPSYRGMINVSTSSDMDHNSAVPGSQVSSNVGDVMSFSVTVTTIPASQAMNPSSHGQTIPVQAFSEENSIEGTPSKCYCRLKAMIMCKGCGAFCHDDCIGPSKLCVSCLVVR
UniProt Q9H0Y0: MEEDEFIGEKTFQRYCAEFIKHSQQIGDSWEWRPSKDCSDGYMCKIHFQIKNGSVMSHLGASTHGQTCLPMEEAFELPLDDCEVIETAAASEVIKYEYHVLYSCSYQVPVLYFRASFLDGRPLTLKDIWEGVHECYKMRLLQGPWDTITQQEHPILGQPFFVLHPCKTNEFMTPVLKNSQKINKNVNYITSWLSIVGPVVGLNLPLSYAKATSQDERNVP
UniProt Q8IXJ9: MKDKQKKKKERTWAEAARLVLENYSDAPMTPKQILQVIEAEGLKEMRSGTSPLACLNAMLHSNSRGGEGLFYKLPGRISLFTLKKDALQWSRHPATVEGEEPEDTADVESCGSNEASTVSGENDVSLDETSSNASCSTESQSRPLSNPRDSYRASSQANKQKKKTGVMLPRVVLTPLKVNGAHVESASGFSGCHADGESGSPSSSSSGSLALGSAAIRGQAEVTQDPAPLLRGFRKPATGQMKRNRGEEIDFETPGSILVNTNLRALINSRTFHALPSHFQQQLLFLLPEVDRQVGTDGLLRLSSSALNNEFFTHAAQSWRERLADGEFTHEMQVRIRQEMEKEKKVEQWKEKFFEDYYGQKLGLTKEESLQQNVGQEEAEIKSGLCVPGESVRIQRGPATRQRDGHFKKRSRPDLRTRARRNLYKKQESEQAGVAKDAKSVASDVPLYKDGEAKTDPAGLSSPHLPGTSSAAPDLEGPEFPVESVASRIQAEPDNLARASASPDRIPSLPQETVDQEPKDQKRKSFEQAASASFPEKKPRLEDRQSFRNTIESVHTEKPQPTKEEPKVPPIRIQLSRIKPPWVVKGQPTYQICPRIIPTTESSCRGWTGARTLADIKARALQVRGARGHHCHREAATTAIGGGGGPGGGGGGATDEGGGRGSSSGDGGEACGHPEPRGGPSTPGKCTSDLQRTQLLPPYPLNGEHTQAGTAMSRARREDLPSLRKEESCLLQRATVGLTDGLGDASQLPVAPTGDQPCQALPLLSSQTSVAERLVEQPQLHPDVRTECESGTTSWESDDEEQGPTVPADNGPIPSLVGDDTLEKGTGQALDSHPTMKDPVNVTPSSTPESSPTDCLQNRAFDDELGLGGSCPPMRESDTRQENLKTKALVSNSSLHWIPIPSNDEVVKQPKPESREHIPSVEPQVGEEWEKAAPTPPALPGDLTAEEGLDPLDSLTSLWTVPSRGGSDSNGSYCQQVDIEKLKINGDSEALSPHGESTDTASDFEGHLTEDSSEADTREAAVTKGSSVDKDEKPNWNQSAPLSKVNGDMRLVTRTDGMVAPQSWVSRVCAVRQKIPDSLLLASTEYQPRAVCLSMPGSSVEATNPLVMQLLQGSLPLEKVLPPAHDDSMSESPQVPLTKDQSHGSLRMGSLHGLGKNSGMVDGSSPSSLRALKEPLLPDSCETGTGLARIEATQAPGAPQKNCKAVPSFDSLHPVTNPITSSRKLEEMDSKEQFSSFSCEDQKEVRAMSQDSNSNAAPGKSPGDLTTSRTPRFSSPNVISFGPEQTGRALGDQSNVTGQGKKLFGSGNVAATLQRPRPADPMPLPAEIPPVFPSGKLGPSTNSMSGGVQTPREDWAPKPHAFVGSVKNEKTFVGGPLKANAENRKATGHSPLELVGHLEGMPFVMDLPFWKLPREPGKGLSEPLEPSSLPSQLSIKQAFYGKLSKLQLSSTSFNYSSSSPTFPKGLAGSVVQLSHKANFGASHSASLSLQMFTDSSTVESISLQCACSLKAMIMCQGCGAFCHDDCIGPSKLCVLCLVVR

How the values were obtained:
Experiment in all cases: log2 fold change, soluble protein after heating vs DMSO (PISA); higher = thermal stabilisation; K562 cells, 10 uM, 30 min; active = over 0.2 and 3.5 SD of the protein, either way, in both replicates (recomputed)
[1] = compound: CS(=O)(=O)c1ccc(-c2cnc(N)c(C(=O)Nc3ccccc3)n2)cc1
Method in brief: (§1)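 Values are thermal stability changes relative to control samples and are taken from duplicates. They are stated as log2 fold changes. Before quantification by TMTpro 16plex LC-MS/MS with equalised channel sums, K562 cells at 2×10^6 cells/mL were treated with 10 μM compound for 30 min, heated in aliquots for 3 min across 48°C-58°C, pooled, extracted in PBS with 0.5% NP-40 at 4°C, and centrifuged at 21,000xg for 90 min to give the soluble supernatant.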

crizotinib = compound: C[C@@H](Oc1cc(-c2cnn(C3CCNCC3)c2)cnc1N)c1c(Cl)ccc(F)c1Cl [crizotinib]
Method in brief: as §1

[2] = compound: C[C@@H]1COCCN1C2=NC(=NC(=C2)C3(CC3)S(=O)(=O)C)C4=C5C=CNC5=CC=C4
Method in brief: as §1

[3] = compound: C[C@H](C1=CC=C(C=C1)C(=O)NC2=C3C=CNC3=NC=C2)N
Method in brief: as §1

gandotinib = compound: Cc1cc(Nc2cc(CN3CCOCC3)c3nc(C)c(Cc4ccc(Cl)cc4F)n3n2)n[nH]1 [gandotinib]
Method in brief: as §1

[4] = compound: Cc1cc(SCc2sc(-c3ccc(C(F)(F)F)cc3)nc2C)ccc1OCC(=O)O
Method in brief: as §1

doramapimod = compound: Cc1ccc(-n2nc(C(C)(C)C)cc2NC(=O)Nc2ccc(OCCN3CCOCC3)c3ccccc23)cc1 [doramapimod]
Method in brief: as §1

ispinesib = compound: Cc1ccc(C(=O)N(CCCN)[C@@H](c2nc3cc(Cl)ccc3c(=O)n2Cc2ccccc2)C(C)C)cc1 [ispinesib]
Method in brief: as §1

duvelisib = compound: C[C@H](Nc1ncnc2nc[nH]c12)c1cc2cccc(Cl)c2c(=O)n1-c1ccccc1 [duvelisib]
Method in brief: as §1

tozasertib = compound: Cc1cc(Nc2cc(N3CCN(C)CC3)nc(Sc3ccc(NC(=O)C4CC4)cc3)n2)n[nH]1 [tozasertib]
Method in brief: as §1

Measured: log2 fold change

ATP6V0A1 isoform 3 (UniProt Q93050)
active: ispinesib -0.446
inactive: [1] -0.041 | crizotinib -0.349 | [2] -0.27 | [3] 0.225 | gandotinib 0.094 | [4] 0.144 | doramapimod 0.152

ATP1A1 (UniProt P05023)
inactive: [1] 0.032 | crizotinib 0.165 | [2] 0.028 | [3] -0.117 | gandotinib -0.049 | [4] -0.035 | doramapimod -0.047 | ispinesib 0.106

ATP6V1E1 (UniProt P36543)
inactive: [1] 0.015 | crizotinib -0.104 | [2] -0.023 | [3] 0.025 | duvelisib 0.021 | gandotinib 0.044 | tozasertib 0.063 | [4] 0.052 | doramapimod 0.032 | ispinesib -0.003

ATAD1 (UniProt Q8NBU5)
inactive: [1] 0.004 | crizotinib 0.021 | [2] -0.013 | [3] 0.074 | gandotinib 0.144 | [4] 0.113 | doramapimod -0.003 | ispinesib -0.063

ARL2BP (UniProt Q9Y2Y0)
inactive: [1] 0.077 | crizotinib -0.128 | [2] -0.017 | [3] -0.038 | gandotinib -0.166 | [4] 0.044 | doramapimod 0.101 | ispinesib -0.042

ATP2B1 isoform 1 (UniProt P20020)
inactive: [1] 0.04 | crizotinib 0.167 | [2] 0.025 | [3] -0.134 | duvelisib 0.054 | gandotinib -0.014 | tozasertib -0.046 | [4] -0.074 | doramapimod -0.017 | ispinesib 0.11

ARMC8 (UniProt Q8IUR7)
inactive: [1] 0.005 | crizotinib 0.013 | [2] 0.005 | [3] -0.015 | gandotinib -0.045 | [4] 0.165 | doramapimod 0.014 | ispinesib 0.051

Three records drawn at random from the list so far, as already listed:
ATP6V0A1 isoform 3 (UniProt Q93050)
active: ispinesib -0.446
inactive: [1] -0.041 | crizotinib -0.349 | [2] -0.27 | [3] 0.225 | gandotinib 0.094 | [4] 0.144 | doramapimod 0.152

ATAD1 (UniProt Q8NBU5)
inactive: [1] 0.004 | crizotinib 0.021 | [2] -0.013 | [3] 0.074 | gandotinib 0.144 | [4] 0.113 | doramapimod -0.003 | ispinesib -0.063

ATP2B1 isoform 1 (UniProt P20020)
inactive: [1] 0.04 | crizotinib 0.167 | [2] 0.025 | [3] -0.134 | duvelisib 0.054 | gandotinib -0.014 | tozasertib -0.046 | [4] -0.074 | doramapimod -0.017 | ispinesib 0.11

(list continues)

ARL6IP6 (UniProt Q8N6S5)
inactive: [1] 0.046 | crizotinib -0.016 | [2] 0.017 | [3] -0.042 | gandotinib -0.008 | [4] -0.042 | doramapimod 0.03 | ispinesib 0.175

ATP5F1D (UniProt P30049)
inactive: [1] -0.02 | crizotinib 0.119 | [2] 0.113 | [3] -0.093 | duvelisib 0.068 | gandotinib 0.032 | tozasertib 0.051 | [4] -0.026 | doramapimod 0.038 | ispinesib 0.043

ASAH1 isoform 2 (UniProt Q13510)
inactive: [1] -0.002 | crizotinib -0.081 | [2] 0.001 | [3] -0.066 | duvelisib 0.043 | gandotinib -0.021 | tozasertib -0.04 | [4] 0 | doramapimod -0.004 | ispinesib 0.02

ASH2L (UniProt Q9UBL3)
inactive: [1] 0.008 | crizotinib 0.126 | [2] 0.046 | [3] 0.058 | gandotinib 0.004 | [4] 0.02 | doramapimod -0.068 | ispinesib 0.036

ATF2 (UniProt P15336)
inactive: [1] 0.017 | crizotinib 0.009 | [2] 0.233 | [3] -0.117 | duvelisib -0.12 | gandotinib 0.013 | tozasertib -0.134 | [4] -0.136 | doramapimod 0 | ispinesib 0.004

ATP2B4 (UniProt P23634)
inactive: [1] 0.038 | crizotinib 0.126 | [2] 0.069 | [3] -0.048 | duvelisib 0.011 | gandotinib 0 | tozasertib -0.051 | [4] -0.048 | doramapimod -0.017 | ispinesib 0.087

ATP6V1C1 (UniProt P21283)
inactive: [1] -0.05 | crizotinib 0.1 | [2] -0.05 | [3] 0.14 | gandotinib 0.033 | [4] 0.041 | doramapimod 0.015 | ispinesib 0.122

ATP1B3 (UniProt P54709)
inactive: [1] 0.053 | crizotinib 0.111 | [2] 0.027 | [3] -0.152 | gandotinib -0.013 | [4] -0.04 | doramapimod -0.042 | ispinesib 0.165

ATP9B (UniProt O43861)
inactive: [1] 0.281 | crizotinib -0.033 | [2] -0.066 | [3] -0.098 | gandotinib -0.053 | [4] 0 | doramapimod 0.015 | ispinesib -0.208

ATF1 (UniProt P18846)
inactive: [1] -0.004 | [2] 0.017 | [3] 0.073 | gandotinib 0.067

ATPSCKMT (UniProt Q6P4H8)
inactive: [1] -0.14 | [2] 0.042 | [3] -0.226 | duvelisib -0.047 | gandotinib 0.159 | tozasertib 0.07 | [4] -0.102

ATP2C1 isoform 3 (UniProt P98194)
inactive: [3] 0.116

ATP13A3 (UniProt Q9H7F0)
inactive: [1] 0.076 | crizotinib -0.251 | [2] -0.037 | [3] 0.056 | gandotinib 0 | [4] -0.043 | doramapimod 0.045 | ispinesib -0.251

ATE1 (UniProt O95260)
inactive: crizotinib 0.149 | [2] 0.017 | [3] -0.152 | duvelisib -0.023 | tozasertib -0.292 | [4] -0.049 | doramapimod 0.089

ATF3 (UniProt P18847)
inactive: [1] 0.128 | [2] -0.094 | [3] -0.126 | duvelisib 0.036 | tozasertib -0.04 | [4] -0.076 | ispinesib -0.124

ATP6V1F isoform 2 (UniProt Q16864)
inactive: [1] -0.303 | crizotinib 0.034 | [2] -0.025 | [3] -0.031 | gandotinib 0.138 | [4] -0.043 | doramapimod 0.007 | ispinesib 0.076

ATP5ME (UniProt P56385)
inactive: [1] -0.016 | crizotinib 0.101 | [2] 0.102 | [3] -0.046 | gandotinib 0.001 | [4] -0.016 | doramapimod 0.033 | ispinesib 0.078

ATG9A (UniProt Q7Z3C6)
active: ispinesib -0.239
inactive: [1] 0.074 | crizotinib -0.11 | [2] 0.036 | [3] 0.036 | gandotinib -0.062 | [4] 0.069 | doramapimod -0.016

ATL2 (UniProt Q8NHH9)
active: ispinesib 0.376
inactive: [1] 0.078 | crizotinib -0.031 | [2] -0.003 | [3] -0.014 | gandotinib -0.035 | [4] 0.056 | doramapimod -0.018

ARL1 (UniProt P40616)
inactive: [1] 0.01 | crizotinib -0.073 | [2] 0.094 | [3] -0.092 | gandotinib -0.111 | [4] 0.031 | doramapimod 0.018 | ispinesib -0.064

ARSK (UniProt Q6UWY0)
inactive: crizotinib -0.155 | [2] -0.004 | [3] -0.007 | doramapimod 0.071

ARRB1 isoform 2 (UniProt P49407)
inactive: crizotinib 0.035 | [3] 0.013 | duvelisib -0.055 | gandotinib -0.016 | tozasertib -0.099 | [4] 0.016 | doramapimod -0.023 | ispinesib 0.062

ATF7IP isoform 4 (UniProt Q6VMQ6)
inactive: crizotinib 0.066 | [2] -0.055 | [3] -0.036 | gandotinib -0.021 | tozasertib -0.059 | doramapimod 0

ARL5B (UniProt Q96KC2)
inactive: [1] -0.029 | [2] 0.057 | [3] -0.002 | duvelisib 0.124 | gandotinib -0.22 | tozasertib -0.021 | [4] 0.141

ATP2B2 (UniProt Q01814)
inactive: [1] -0.117 | [3] -0.199 | duvelisib 0.728 | gandotinib 0 | [4] 0.611

ATP6V0C (UniProt P27449)
inactive: [1] -0.037 | [2] 0.075 | [3] 0.094 | duvelisib 0.023 | gandotinib 0 | tozasertib -0.021 | [4] 0.092

ATF7 isoform 6 (UniProt P17544)
inactive: [1] -0.131 | crizotinib 0.061 | [2] 0.02 | [3] -0.088 | [4] -0.054 | doramapimod 0.158 | ispinesib 0.223

ARRDC1 (UniProt Q8N5I2)
inactive: [1] 0.015 | [2] -0.097 | [3] 0.205 | gandotinib 0.1 | [4] -0.071 | ispinesib -0.082

ATAD3B (UniProt Q5T9A4)
inactive: [1] 0.009 | crizotinib -0.171 | [2] -0.112 | [3] 0.191 | gandotinib 0.033 | [4] 0.105 | doramapimod 0.137
active: ispinesib -0.544

ATP5F1B (UniProt F8W0P7)
inactive: [1] 0.032 | crizotinib 0.199 | [2] 0.011 | duvelisib 0.028 | tozasertib -0.065 | [4] 0.033 | doramapimod 0.178 | ispinesib -0.036

ARL6 isoform 2 (UniProt Q9H0F7)
inactive: ispinesib 0.028

ARPIN isoform 2 (UniProt Q7Z6K5)
inactive: crizotinib 0.127 | gandotinib -0.168 | tozasertib -0.085 | doramapimod 0.077 | ispinesib -0.055

ARL3 (UniProt P36405)
inactive: [1] 0.029 | crizotinib 0.041 | [2] 0.019 | [3] -0.017 | gandotinib 0.025 | [4] -0.012 | doramapimod -0.003 | ispinesib 0.063

ARL13B (UniProt Q3SXY8)
inactive: [1] -0.022 | crizotinib -0.005 | [2] -0.244 | duvelisib -0.109 | gandotinib 0.08 | tozasertib -0.101 | [4] -0.204 | doramapimod 0.011 | ispinesib -0.07

ASB6 (UniProt Q9NWX5)
inactive: [1] 0.019 | crizotinib 0.013 | [2] -0.025 | gandotinib 0.109 | doramapimod 0.037 | ispinesib -0.143

ATG2A (UniProt Q2TAZ0)
inactive: crizotinib -0.223 | [2] -0.535 | gandotinib -0.212 | doramapimod 0.063

ATG4A (UniProt Q8WYN0)
inactive: [3] 0.103

ASNSD1 (UniProt Q9NWL6)
inactive: [1] 0.195 | crizotinib 0.018 | [2] 0.107 | doramapimod 0.05

ATP1B1 (UniProt P05026)
inactive: [1] 0.162 | crizotinib 0.11 | [3] -0.132 | duvelisib 0.109 | gandotinib -0.127 | tozasertib -0.032 | [4] -0.04 | doramapimod -0.069 | ispinesib 0.112

ATG4B isoform 2 (UniProt Q9Y4P1)
inactive: [1] 0.078 | crizotinib -0.361 | [2] 0.056 | [3] -0.004 | gandotinib -0.12 | [4] 0.184 | doramapimod 0.003 | ispinesib -0.277

ASS1 (UniProt P00966)
inactive: [1] 0.033 | [2] 0.017 | [3] -0.079 | gandotinib -0.014 | [4] -0.062 | ispinesib -0.205

ASXL2 (UniProt Q76L83)
inactive: duvelisib -0.107 | [4] -0.098

ATP5F1B (UniProt H0YI37)
inactive: [1] 0.265 | [2] -0.094 | duvelisib 0.346 | gandotinib -0.032 | [4] -0.343

ATP1A2 (UniProt P50993)
inactive: duvelisib 1.08 | [4] 0.915

ATAD3A isoform 2 (UniProt Q9NVI7)
active: ispinesib -0.348
inactive: [1] 0.003 | crizotinib -0.191 | [2] -0.052 | [3] 0.101 | gandotinib 0.032 | [4] 0.075 | doramapimod 0.057

ATF6 (UniProt P18850)
inactive: [1] -0.062 | ispinesib -0.447

ATG10 (UniProt Q9H0Y0)
inactive: [2] -0.022 | gandotinib 0.103 | tozasertib -0.085

ASXL1 (UniProt Q8IXJ9)
inactive: [1] -0.205 | [2] -0.071 | [3] -0.045 | tozasertib -0.02
